Laboratory results from patent publication US20250127740A1, “COMPOSITION CONTAINING 3-HYDROXYANTHRANILIC ACID AND COMPOUNDS THAT ALTER IRON HOMEOSTASIS AND METHOD OF ITS USE” (priority 2021, published 2025).
At least one compound was matched to its structure with a doubt left.

Key:
E. coli [1] = type: cell-based; conditions: different dosages; liquid media OD 600 nm and CFUs on solid media; single compound
Protocol: 3HAA was tested for its ability to negatively impact bacterial growth. 3HAA was tested at different dosages for inhibition of E. coli and P. aeruginosa growth in liquid media (measured by optical density at 600 nm) and colony forming units (CFUs) on solid media.
Deferoxamine (DFO) was also tested for its ability to impact bacterial growth. Deferoxamine was tested at different dosages for inhibition of E. coli and P. aeruginosa growth in liquid media (measured by optical density at 600 nm) and CFUs on solid media.

E. coli [2] = experiment: Pre-treatment of E. coli in liquid media, then colony count on DFO+3HAA plates; type: cell-based; conditions: pretreatment 1 mM 3HAA or 15 uM DFO, 16 hr at 37 degrees
Protocol: E. coli inoculates were grown in liquid media containing either control (no additives), 1 mM 3HAA or 15 uM DFO for 16 hr at 37 degrees with shaking. The cultures were spotted to either Control plates (no additives) or plate containing DFO+3HAA and left to dry at room temperature. After incubated at 37 degrees for 16 hours, colonies were counted.

E. coli infection = experiment: Infection of C. elegans challenged with fluorescently labeled E. coli; type: in vivo; conditions: haao-1 knockout worms (high endogenous 3HAA); fluorescence microscopy over 7 days
From the text: Infection was monitored using fluorescence microscopy over 7 days. Heatmap of infection progression of individual animals over days—purple 32 not infected, red=high infection.

In the case of `CC(=O)N(O)CCCCCNC(=O)CCC(=O)N(O)CCCCCNC(=O)CCC(=O)N(O)CCCCCN` [DFO, deferoxamine, reference compound], the “impact on growth of E. coli” value (E. coli [1]) is reported as “very little impact”, the “sensitization of bacteria to the 3HAA and DFO combination by pretreatment” value (E. coli [2]) is reported as “sensitizes bacteria to the combination of 3HAA and DFO” and the “protection from E. coli infection” value (E. coli infection) is reported as “protected from infection”.
